According to PMC4832065:
These are yes or no findings as the source states them, for the method shown. In cells and extracts the contact can be indirect. For some assays here: Binding can be weak; no strength is given.

The chains behind the UniProt entries cited, without tags or fusion partners. Where a name states a change or a piece, a line headed by the entry shows the natural chain unless it says otherwise.
UniProt Q9Y6K9: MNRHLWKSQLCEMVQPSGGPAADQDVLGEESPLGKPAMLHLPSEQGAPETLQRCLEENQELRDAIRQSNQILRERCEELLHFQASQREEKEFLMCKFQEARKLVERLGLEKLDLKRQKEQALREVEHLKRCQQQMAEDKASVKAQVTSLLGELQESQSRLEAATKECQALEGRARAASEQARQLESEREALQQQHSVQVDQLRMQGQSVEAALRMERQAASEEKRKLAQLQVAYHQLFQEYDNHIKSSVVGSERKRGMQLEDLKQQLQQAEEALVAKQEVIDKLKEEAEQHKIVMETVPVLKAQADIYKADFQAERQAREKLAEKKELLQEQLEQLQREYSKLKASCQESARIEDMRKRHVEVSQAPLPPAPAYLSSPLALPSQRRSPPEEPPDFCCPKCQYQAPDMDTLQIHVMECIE
UniProt Q9UDY8: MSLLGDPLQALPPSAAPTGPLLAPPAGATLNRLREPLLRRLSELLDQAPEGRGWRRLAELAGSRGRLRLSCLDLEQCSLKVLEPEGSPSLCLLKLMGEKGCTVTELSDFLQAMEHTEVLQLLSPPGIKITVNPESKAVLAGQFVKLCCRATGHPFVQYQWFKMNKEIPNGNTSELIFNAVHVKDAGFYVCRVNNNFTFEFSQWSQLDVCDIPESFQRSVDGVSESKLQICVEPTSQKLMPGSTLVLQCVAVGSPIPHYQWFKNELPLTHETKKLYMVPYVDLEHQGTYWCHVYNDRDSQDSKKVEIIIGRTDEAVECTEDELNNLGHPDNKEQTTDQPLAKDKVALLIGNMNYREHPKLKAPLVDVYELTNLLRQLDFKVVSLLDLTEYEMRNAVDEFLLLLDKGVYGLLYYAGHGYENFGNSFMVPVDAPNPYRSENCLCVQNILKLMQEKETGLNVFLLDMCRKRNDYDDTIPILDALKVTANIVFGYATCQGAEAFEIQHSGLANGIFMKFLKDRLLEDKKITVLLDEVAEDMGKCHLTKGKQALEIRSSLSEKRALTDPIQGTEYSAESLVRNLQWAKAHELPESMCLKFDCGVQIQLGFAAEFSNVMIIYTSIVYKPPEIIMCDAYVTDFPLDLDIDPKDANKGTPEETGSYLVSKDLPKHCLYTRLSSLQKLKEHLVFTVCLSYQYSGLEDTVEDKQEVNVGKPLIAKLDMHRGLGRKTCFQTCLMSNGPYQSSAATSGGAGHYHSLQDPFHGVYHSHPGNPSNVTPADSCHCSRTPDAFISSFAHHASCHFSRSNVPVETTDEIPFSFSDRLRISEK

Legend:
[1] = molecular target: NEMO (IKK regulatory subunit) (human (endogenous in Jurkat)) (UniProt Q9Y6K9); assay: co-IP; NEMO IP (anti-NEMO, overnight 4 °C, Protein G Sepharose) from lysates of reconstituted MALT1-deficient Jurkat T cells after P/I stimulation; co-IP buffer; MALT1 detected by western blot, modified MALT1 indicative of ubiquitination
[2] = molecular target: MALT1B T6BM3 EA-StrepTagII (mutation of the binding site T6BM3 in MALT1B) (human) (UniProt Q9UDY8); assay: pull-down; StrepT-PD: MALT1-StrepTagII variants precipitated on Strep-Tactin Sepharose (4 °C overnight) from lysates of reconstituted MALT1-deficient Jurkat T cells after 30 min P/I stimulation; co-IP buffer (25 mM HEPES pH 7.5, 150 mM NaCl, 0.2% NP-40, 10% glycerol, 1 mM DTT); western blot

| binding [1] | binding [2] | Molecule |
| --- | --- | --- |
| no binding |  | MALT1B T6BM3 EA-StrepTagII (mutation of the binding site T6BM3 in MALT1B) (from UniProt Q9UDY8-2) |
|  | binds | BCL10 (protein, UniProt O95999 1-233) MEPTAPSLTEEDLTEVKKDALENLRVYLCEKIIAERHFDHLRAKKILSREDTEEISCRTSSRKRAGKLLDYLQENPKGLDTLVESIRREKTQNFLIQKITDEVLKLRNIKLEHLKGLKCSSCEPFPDGATNNLSRSNSDESNFSEKLRASTVMYHPEGESSTTPFFSTNSSLNLPVLEVGRTENTIFSSTTLPRPGDPGAPPLPPDLQLEEEGTCANSSEMFLPLRSRTVSRQ |
